From publication PMC10140023
These are yes or no findings as the source states them, for the method shown. For part of these data: Binding calls can cover weak binding; strength is not graded here. For part of these data: Binding seen in cells or lysates may run through a third protein. Each block holds one substance with its values, some of them ahead of it.

Amino acid sequences for entries named in this document (tags omitted). A change or cut given only in a name is not applied to a line headed by its entry.
UniProt P01106: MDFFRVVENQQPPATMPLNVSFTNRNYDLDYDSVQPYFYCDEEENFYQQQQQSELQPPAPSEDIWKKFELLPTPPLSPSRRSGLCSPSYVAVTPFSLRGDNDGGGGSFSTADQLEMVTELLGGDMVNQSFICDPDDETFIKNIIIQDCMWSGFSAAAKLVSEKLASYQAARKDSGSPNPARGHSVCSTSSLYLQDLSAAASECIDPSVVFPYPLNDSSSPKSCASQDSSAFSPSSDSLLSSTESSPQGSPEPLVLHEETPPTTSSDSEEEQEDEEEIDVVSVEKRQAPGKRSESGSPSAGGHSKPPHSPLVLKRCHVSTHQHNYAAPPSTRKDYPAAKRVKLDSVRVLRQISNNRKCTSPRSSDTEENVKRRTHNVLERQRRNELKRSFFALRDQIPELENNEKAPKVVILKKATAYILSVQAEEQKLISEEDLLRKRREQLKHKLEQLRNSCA
UniProt P28340: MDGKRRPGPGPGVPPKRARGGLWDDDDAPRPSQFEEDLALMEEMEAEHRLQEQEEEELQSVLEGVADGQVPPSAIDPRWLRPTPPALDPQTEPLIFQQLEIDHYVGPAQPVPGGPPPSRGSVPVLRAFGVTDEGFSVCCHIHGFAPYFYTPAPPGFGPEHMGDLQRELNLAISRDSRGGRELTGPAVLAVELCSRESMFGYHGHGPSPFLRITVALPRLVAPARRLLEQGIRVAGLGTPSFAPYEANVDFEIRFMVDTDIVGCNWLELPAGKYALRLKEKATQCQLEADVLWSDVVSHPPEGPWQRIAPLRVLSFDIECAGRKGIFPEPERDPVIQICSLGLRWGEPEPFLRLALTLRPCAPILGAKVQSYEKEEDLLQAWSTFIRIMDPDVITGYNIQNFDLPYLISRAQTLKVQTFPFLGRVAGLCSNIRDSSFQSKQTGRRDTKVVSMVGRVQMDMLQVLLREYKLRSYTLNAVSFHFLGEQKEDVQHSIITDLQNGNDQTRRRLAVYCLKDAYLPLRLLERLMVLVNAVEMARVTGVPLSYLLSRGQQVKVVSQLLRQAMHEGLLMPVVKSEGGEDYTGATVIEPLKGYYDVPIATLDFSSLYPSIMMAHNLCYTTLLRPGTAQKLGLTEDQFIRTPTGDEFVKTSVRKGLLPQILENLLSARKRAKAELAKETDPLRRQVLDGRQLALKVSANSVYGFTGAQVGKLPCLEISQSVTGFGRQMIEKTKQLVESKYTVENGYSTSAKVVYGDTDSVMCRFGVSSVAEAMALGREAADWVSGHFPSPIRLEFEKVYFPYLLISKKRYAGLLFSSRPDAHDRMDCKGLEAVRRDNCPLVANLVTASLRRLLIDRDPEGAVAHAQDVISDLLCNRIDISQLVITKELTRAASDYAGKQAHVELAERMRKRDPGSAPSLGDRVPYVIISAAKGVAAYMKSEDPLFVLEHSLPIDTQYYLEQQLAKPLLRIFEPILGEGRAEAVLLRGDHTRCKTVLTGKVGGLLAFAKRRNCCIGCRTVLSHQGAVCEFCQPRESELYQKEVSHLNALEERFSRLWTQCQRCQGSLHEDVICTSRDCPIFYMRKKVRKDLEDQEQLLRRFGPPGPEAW
UniProt Q969H0: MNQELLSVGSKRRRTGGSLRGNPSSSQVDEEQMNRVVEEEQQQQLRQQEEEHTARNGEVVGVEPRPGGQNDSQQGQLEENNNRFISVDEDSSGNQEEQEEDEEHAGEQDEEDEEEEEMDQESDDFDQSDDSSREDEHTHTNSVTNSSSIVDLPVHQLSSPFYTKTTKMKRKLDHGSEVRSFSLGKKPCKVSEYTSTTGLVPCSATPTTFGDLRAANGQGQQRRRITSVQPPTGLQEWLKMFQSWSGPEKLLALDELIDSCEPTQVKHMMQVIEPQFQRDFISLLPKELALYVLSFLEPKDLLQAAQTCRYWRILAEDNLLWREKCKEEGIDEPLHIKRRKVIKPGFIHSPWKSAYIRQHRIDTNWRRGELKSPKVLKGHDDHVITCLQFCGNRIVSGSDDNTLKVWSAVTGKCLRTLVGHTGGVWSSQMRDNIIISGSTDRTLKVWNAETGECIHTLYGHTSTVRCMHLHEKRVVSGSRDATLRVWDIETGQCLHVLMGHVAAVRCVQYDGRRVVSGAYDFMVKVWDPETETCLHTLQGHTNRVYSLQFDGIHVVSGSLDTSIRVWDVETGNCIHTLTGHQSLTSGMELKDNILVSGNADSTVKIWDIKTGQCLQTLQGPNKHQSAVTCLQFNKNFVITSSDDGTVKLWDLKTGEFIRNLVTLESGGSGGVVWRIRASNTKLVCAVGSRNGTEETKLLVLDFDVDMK

Columns and labels:
[1] = molecular target: MYC-N-terminal-HA-tagged (amino acids 1-220) (human) (UniProt P01106); assay: co-IP; tagged proteins co-expressed in 293T cells (1 x 10^6 cells); IP binding buffer (PBS, 0.3% Tween 20, 75 mM NaCl); antibody overnight at 4 °C, protein A (or A/G) magnetic beads; Western blot
[2] = molecular target: GST-MYC-1-105 (human) (UniProt P01106); assay: pull-down; GST pull-down with purified proteins (2 μg) in IP binding buffer, glutathione-Sepharose magnetic beads overnight at 4 °C; Western blot; both purified
[3] = molecular target: GST-MYC-106-221 (human) (UniProt P01106); assay: pull-down; GST pull-down: recombinant GST-MYC fragments with increasing recombinant His-POLD1 (0.1, 1.0, 3.0 μg) in the presence of lysate of 293T cells expressing Myc-FBXW7α△F; both purified
[4] = molecular target: GST-MYC-1-105 (human) (UniProt P01106); assay: as above
[5] = molecular target: GST-MYC-106-221 (human) (UniProt P01106); assay: pull-down; GST pull-down: recombinant GST-MYC fragments with lysate of 293T cells expressing Myc-FBXW7α△F and increasing recombinant His-POLD1 (0.1, 1.0, 3.0 μg); only the target purified
[6] = molecular target: GST-MYC-1-105 (human) (UniProt P01106); assay: as above

binding [1]: binds
Substance: GFP-POLD1 (from UniProt P28340 1-1107)

binding [2]: binds
binding [4]: binds
Substance: His-POLD1 (from UniProt P28340 1-1107)
binding [3]: no binding (tested: 0.1, 1.0, and 3.0 μg His-POLD1)

binding [5]: no binding
binding [6]: binds
Substance: Myc-FBXW7α△F (F-box deletion mutant) (from UniProt Q969H0)
